Laboratory results published in article doi:10.1101/2022.12.11.519953.
Results are given in words; binding and its absence hold for the method and conditions named.

Chains of the proteins cited; added tags and fusions are not shown. Lines headed by an entry give the natural chain unless they say otherwise; changes in a name come on top. A line that says so, or that is headed by a name, gives the form on record, which may keep a tag or linker. Residues count along the entry.
C-terminal half of NF2 isoform 1 (AA M308-595) (P35240, residues 308-595): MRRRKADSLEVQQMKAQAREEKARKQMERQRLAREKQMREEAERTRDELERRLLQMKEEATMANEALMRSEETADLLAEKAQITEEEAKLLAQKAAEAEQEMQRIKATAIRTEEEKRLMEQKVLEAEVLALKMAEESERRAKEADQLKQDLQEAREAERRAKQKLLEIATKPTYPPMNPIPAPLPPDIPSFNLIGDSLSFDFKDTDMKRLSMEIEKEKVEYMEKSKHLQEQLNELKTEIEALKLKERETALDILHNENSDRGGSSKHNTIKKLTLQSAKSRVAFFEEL
C-terminal half of NF2 isoform 7 (AA M225-507) (P35240-4, form named): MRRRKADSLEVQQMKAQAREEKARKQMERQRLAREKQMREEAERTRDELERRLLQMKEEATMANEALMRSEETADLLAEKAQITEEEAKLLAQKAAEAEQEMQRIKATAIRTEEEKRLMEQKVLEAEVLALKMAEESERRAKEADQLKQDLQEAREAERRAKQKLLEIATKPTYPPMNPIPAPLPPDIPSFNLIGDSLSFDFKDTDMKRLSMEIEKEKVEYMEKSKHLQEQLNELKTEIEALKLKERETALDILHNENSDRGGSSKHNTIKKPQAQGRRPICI
UniProt Q9Y6C2: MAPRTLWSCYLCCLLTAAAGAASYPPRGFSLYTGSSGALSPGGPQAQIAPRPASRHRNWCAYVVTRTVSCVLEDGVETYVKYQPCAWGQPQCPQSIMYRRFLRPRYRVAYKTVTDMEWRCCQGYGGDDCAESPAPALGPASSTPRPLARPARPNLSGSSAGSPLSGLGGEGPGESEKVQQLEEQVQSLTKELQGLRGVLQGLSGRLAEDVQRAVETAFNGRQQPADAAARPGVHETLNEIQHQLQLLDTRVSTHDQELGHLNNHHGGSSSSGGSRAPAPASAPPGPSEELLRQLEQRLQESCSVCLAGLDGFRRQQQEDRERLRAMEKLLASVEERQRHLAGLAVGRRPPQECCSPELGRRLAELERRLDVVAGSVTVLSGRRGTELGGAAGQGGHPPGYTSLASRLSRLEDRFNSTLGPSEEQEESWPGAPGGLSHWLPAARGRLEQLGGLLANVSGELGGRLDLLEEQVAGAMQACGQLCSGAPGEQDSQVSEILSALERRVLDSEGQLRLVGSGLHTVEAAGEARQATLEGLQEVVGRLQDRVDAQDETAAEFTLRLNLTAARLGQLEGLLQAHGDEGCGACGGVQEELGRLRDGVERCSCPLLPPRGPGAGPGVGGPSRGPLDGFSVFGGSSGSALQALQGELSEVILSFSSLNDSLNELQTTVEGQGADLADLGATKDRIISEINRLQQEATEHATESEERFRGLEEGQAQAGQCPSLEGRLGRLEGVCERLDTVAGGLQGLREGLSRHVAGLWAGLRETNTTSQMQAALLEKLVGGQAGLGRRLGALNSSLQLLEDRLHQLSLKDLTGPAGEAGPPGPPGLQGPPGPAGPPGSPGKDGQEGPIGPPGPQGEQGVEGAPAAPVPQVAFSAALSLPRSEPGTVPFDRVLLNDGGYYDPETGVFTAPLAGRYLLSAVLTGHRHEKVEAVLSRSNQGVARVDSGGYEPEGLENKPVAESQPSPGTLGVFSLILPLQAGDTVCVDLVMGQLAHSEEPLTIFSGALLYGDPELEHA

molecular target: NF2 isoform 1 with an exon 16 derived C-terminus (human) (UniProt P35240); test: two-hybrid

| binding | Substance |
| --- | --- |
| no binding | C-terminal half of NF2 isoform 7 (AA M225-507) (from UniProt P35240-4 225-507) (domain or fragment) |
| no binding | elastin microfibril interfacer 1 protein (from UniProt Q9Y6C2 1-1016) |
| no binding | C-terminal half of NF2 isoform 1 (AA M308-595) (from UniProt P35240-1 308-595) (domain or fragment) |
| no binding | phosphoinositide-3-kinase regulatory subunit 3 (from UniProt Q92569 1-461) |
